Measured values reported in the supplement of paper PMC4604168 (melanoma cell lines).
This is one part of the list. Repeats are few or missing, and single values can be far off.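 Imaging used 1,536-well plates; nuclei positive for cleaved PARP by antibody were divided by total DNA-stained nuclei to yield the apoptosis fraction. Doses for screening kept most cells viable, and cell lines differ markedly in resting and induced cleaved-PARP levels.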

Key:
Assay in all cases: cleaved PARP positive nuclei fraction relative to DMSO control; melanoma cells; higher = more apoptosis
Conditions in all cases: library dose: low library concentration; 72 h
[1] = system: MZ2-MEL
[2] = system: MeWo
[3] = system: RPMI7951
[4] = system: RVH-421
[5] = system: SkMel28
[6] = system: SkMel2
[7] = system: SkMel30
[8] = system: UACC62

Compound	cleaved PARP positive nuclei fraction [1] [%]	cleaved PARP positive nuclei fraction [2] [%]	cleaved PARP positive nuclei fraction [3] [%]	cleaved PARP positive nuclei fraction [4] [%]	cleaved PARP positive nuclei fraction [5] [%]	cleaved PARP positive nuclei fraction [6] [%]	cleaved PARP positive nuclei fraction [7] [%]	cleaved PARP positive nuclei fraction [8] [%]
Cn1cc(C2=C(c3cn(C4CCN(Cc5ccccn5)CC4)c4ccccc34)C(=O)NC2=O)c2ccccc21 [Enzastaurin] + CN1CCN(c2ccc3nc(-c4c(N)c5c(F)cccc5[nH]c4=O)[nH]c3c2)CC1 [Dovitinib] (first compound 0.8 µM, partner dose 0.1 µM)	43.9	51.8	94.2	166	86.1	427	105	90.8
N.N.[Cl][Pt][Cl] [cisplatin] + Cc1nc(Nc2ncc(C(=O)Nc3c(C)cccc3Cl)s2)cc(N2CCN(CCO)CC2)n1 [dasatanib] (first compound 1.6 µM, partner dose 0.004 µM)	209	64.5	86.7	95.1	383	155	134	95.1
N.N.[Cl][Pt][Cl] [cisplatin] + CN1CCN(c2ccc3nc(-c4c(N)c5c(F)cccc5[nH]c4=O)[nH]c3c2)CC1 [Dovitinib] (first compound 1.6 µM, partner dose 0.1 µM)	149	370	114	114	38.8	199	132	157
CCN(CC)CCNC(=O)c1c(C)[nH]c(/C=C2\C(=O)Nc3ccc(F)cc32)c1C [sunitinib] + N.N.[Cl][Pt][Cl] [cisplatin] (first compound 0.4 µM, partner dose 1.6 µM)	34.8	107	108	72.3	155	45.8	93.5	237
N.N.[Cl][Pt][Cl] [cisplatin] + Nc1cccc2c1CN(C1CCC(=O)NC1=O)C2=O [lenalidomide] (first compound 1.6 µM, partner dose 1 µM)	167	71.5	115	134	77.6	151	64.2	85.1
Cn1cc(C2=C(c3cn(C4CCN(Cc5ccccn5)CC4)c4ccccc34)C(=O)NC2=O)c2ccccc21 [Enzastaurin] + CC(=O)c1c(C)c2cnc(Nc3ccc(N4CCNCC4)cn3)nc2n(C2CCCC2)c1=O [palbociclib] (first compound 0.8 µM, partner dose 0.04 µM)	42.3	63.1	141	78.6	111	108	161	162
Cc1ccc(Nc2nccc(N(C)c3ccc4c(C)n(C)nc4c3)n2)cc1S(N)(=O)=O [Pazopanib] + N.N.[Cl][Pt][Cl] [cisplatin] (first compound 0.4 µM, partner dose 1.6 µM)	108	195	32.5	97.4	75.3	46.7	58.5	25
Nc1ncn([C@H]2C[C@H](O)[C@@H](CO)O2)c(=O)n1 [decitabine] + C[As](C)SC[C@H](NC(=O)CC[C@H](N)C(=O)O)C(=O)NCC(=O)O [Darinaparsin] (first compound 0.1 µM, partner dose 0.4 µM)	116	36.9	89.2	152	96.2	95.7	103	199
O=C(Nc1cc(C(F)(F)F)cc(C(F)(F)F)c1)c1cc(Cl)ccc1O + N.N.[Cl][Pt][Cl] [cisplatin] (first compound 0.016 µM, partner dose 1.6 µM)	96.7	182	101	114	59.6	133	131	105
Cn1cnc2c(F)c(Nc3ccc(Br)cc3Cl)c(C(=O)NOCCO)cc21 [selumetinib] + N.N.[Cl][Pt][Cl] [cisplatin] (first compound 0.015 µM, partner dose 1.6 µM)	171	126	109	111	91.1	116	22.6	148
O=C(O)[C@@H]1[O][Sb](=[O])([O][Sb]2(=[O])[O][C@H]([C@H](O)CO)[C@H](O)[C@H](C(=O)O)[O]2)[O][C@H]([C@H](O)CO)[C@@H]1O (some centres undefined) [stibogluconate] + C[As](C)SC[C@H](NC(=O)CC[C@H](N)C(=O)O)C(=O)NCC(=O)O [Darinaparsin] (first compound 2 µM, partner dose 0.4 µM)	42.4	202	50.8	104	171	93.6	150	36.5
Cn1cc(C2=C(c3cn(C4CCN(Cc5ccccn5)CC4)c4ccccc34)C(=O)NC2=O)c2ccccc21 [Enzastaurin] + Nc1cccc2c1CN(C1CCC(=O)NC1=O)C2=O [lenalidomide] (first compound 0.8 µM, partner dose 1 µM)	135	32.3	100	23.8	78.5	115	22	55.2
Cn1cc(C2=C(c3cn(C4CCN(Cc5ccccn5)CC4)c4ccccc34)C(=O)NC2=O)c2ccccc21 [Enzastaurin] + Nc1ncn([C@H]2C[C@H](O)[C@@H](CO)O2)c(=O)n1 [decitabine] (first compound 0.8 µM, partner dose 0.1 µM)	62.9	116	145	179	77.7	103	89	141
N.N.[Cl][Pt][Cl] [cisplatin] + CS(=O)(=O)CCNCc1ccc(-c2ccc3ncnc(Nc4ccc(OCc5cccc(F)c5)c(Cl)c4)c3c2)o1 [lapatinib] (first compound 1.6 µM, partner dose 0.8 µM)	87.3	51.1	238	105	144	71	75.5	124
N.N.[Cl][Pt][Cl] [cisplatin] + C[As](C)SC[C@H](NC(=O)CC[C@H](N)C(=O)O)C(=O)NCC(=O)O [Darinaparsin] (first compound 1.6 µM, partner dose 0.4 µM)	82.2	94.3	64.3	46.4	77	92.5	56.4	73.2
Cn1cc(C2=C(c3cn(C4CCN(Cc5ccccn5)CC4)c4ccccc34)C(=O)NC2=O)c2ccccc21 [Enzastaurin] + C=CCNC1=C2C[C@@H](C)C[C@H](OC)[C@H](O)[C@@H](C)/C=C(\C)[C@H](OC(N)=O)[C@@H](OC)/C=C\C=C(/C)C(=O)NC(=CC1=O)C2=O [Tanespimycin] (first compound 0.8 µM, partner dose 0.002 µM)	66.5	38.2	176	96.2	46.5	64.9	110	84.5
Cc1cc(Nc2cc(N3CCN(C)CC3)nc(Sc3ccc(NC(=O)C4CC4)cc3)n2)n[nH]1 [Tozasertib] + C[As](C)SC[C@H](NC(=O)CC[C@H](N)C(=O)O)C(=O)NCC(=O)O [Darinaparsin] (first compound 0.006 µM, partner dose 0.4 µM)	31.7	171	43.1	158	176	88.1	18.3	97.6
N#CC[C@H](C1CCCC1)n1cc(-c2ncnc3[nH]ccc23)cn1 [ruxolitinib] + C[As](C)SC[C@H](NC(=O)CC[C@H](N)C(=O)O)C(=O)NCC(=O)O [Darinaparsin] (first compound 1 µM, partner dose 0.4 µM)	95.5	163	35.8	227	36.2	240	63.6	49.7
CC(=O)O[C@@]12CO[C@@H]1C[C@H](O)[C@@]1(C)C(=O)[C@H](O)C3=C(C)[C@@H](OC(=O)[C@H](O)[C@@H](NC(=O)OC(C)(C)C)c4ccccc4)C[C@@](O)([C@@H](OC(=O)c4ccccc4)[C@H]21)C3(C)C [Docetaxel] + N.N.[Cl][Pt][Cl] [cisplatin] (first compound 0.0001 µM, partner dose 1.6 µM)	503	888	201	143	134	454	363	677
Cn1cc(C2=C(c3cn(C4CCN(Cc5ccccn5)CC4)c4ccccc34)C(=O)NC2=O)c2ccccc21 [Enzastaurin] + CS(=O)(=O)c1ccc(C(=O)Nc2ccc(Cl)c(-c3ccccn3)c2)c(Cl)c1 [vismodegib] (first compound 0.8 µM, partner dose 1 µM)	211	59	32.3	93.9	34.7	195	30.7	41.9
N.N.[Cl][Pt][Cl] [cisplatin] + C#Cc1cccc(Nc2ncnc3cc(OCCOC)c(OCCOC)cc23)c1 [erlotinib] (first compound 1.6 µM, partner dose 0.8 µM)	129	112	38.1	62	76.9	70.8	23.1	156
C[As](C)SC[C@H](NC(=O)CC[C@H](N)C(=O)O)C(=O)NCC(=O)O [Darinaparsin] + C[C@]1(c2nc3c(C(N)=O)cccc3[nH]2)CCCN1 [Veliparib] (first compound 0.4 µM, partner dose 1.4 µM)	80.3	171	201	141	137	134	184	159
Nc1nc(F)nc2c1ncn2[C@@H]1O[C@H](CO)[C@@H](O)[C@@H]1O [fludarabine] + C[As](C)SC[C@H](NC(=O)CC[C@H](N)C(=O)O)C(=O)NCC(=O)O [Darinaparsin] (first compound 0.2 µM, partner dose 0.4 µM)	58.4	746	390	86.8	58.6	242	1550	19.4

Whole records from above. Values in the order: cleaved PARP positive nuclei fraction [1] [%] | cleaved PARP positive nuclei fraction [2] [%] | cleaved PARP positive nuclei fraction [3] [%] | cleaved PARP positive nuclei fraction [4] [%] | cleaved PARP positive nuclei fraction [5] [%] | cleaved PARP positive nuclei fraction [6] [%] | cleaved PARP positive nuclei fraction [7] [%] | cleaved PARP positive nuclei fraction [8] [%]
Cn1cc(C2=C(c3cn(C4CCN(Cc5ccccn5)CC4)c4ccccc34)C(=O)NC2=O)c2ccccc21 [Enzastaurin] + Nc1ncn([C@H]2C[C@H](O)[C@@H](CO)O2)c(=O)n1 [decitabine] (first compound 0.8 µM, partner dose 0.1 µM) in the list: 62.9 | 116 | 145 | 179 | 77.7 | 103 | 89 | 141
Cc1ccc(Nc2nccc(N(C)c3ccc4c(C)n(C)nc4c3)n2)cc1S(N)(=O)=O [Pazopanib] + N.N.[Cl][Pt][Cl] [cisplatin] (first compound 0.4 µM, partner dose 1.6 µM) in the list: 108 | 195 | 32.5 | 97.4 | 75.3 | 46.7 | 58.5 | 25
